Experiment [1] addresses T1, zebrafish E-cadherin (zebrafish (endogenous in zebrafish embryos)) (UniProt Q90Z37).
T1 sequence: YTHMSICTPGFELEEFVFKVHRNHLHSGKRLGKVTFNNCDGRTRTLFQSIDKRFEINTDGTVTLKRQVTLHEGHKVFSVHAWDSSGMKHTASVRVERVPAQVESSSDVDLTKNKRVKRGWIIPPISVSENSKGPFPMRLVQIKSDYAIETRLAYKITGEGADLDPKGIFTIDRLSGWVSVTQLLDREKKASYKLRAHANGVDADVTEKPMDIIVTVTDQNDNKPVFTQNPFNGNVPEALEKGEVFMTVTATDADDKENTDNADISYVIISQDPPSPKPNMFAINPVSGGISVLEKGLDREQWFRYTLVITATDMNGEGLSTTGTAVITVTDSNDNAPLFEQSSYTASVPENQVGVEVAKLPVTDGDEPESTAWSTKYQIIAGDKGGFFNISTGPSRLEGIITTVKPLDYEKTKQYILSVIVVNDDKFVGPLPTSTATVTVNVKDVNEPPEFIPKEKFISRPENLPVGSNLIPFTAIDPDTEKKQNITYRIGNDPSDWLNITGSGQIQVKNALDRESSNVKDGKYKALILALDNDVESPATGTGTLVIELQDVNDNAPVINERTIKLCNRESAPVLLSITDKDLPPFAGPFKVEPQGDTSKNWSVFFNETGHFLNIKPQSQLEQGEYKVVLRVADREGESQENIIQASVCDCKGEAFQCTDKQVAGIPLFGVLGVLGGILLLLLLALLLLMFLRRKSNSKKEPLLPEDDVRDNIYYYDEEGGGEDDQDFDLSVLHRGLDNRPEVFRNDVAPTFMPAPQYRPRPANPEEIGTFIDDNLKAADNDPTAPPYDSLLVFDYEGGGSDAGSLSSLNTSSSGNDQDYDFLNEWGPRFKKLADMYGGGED
The experiment can be described thus: proximity ligation; Duolink PLA in the thyroid primordium of 4-dpf Tg(tg:GFP) zebrafish embryos, WT and gbp1 morphants.

By UniProt entry, the sequences of proteins in these tests, tags left out.
UniProt P35222: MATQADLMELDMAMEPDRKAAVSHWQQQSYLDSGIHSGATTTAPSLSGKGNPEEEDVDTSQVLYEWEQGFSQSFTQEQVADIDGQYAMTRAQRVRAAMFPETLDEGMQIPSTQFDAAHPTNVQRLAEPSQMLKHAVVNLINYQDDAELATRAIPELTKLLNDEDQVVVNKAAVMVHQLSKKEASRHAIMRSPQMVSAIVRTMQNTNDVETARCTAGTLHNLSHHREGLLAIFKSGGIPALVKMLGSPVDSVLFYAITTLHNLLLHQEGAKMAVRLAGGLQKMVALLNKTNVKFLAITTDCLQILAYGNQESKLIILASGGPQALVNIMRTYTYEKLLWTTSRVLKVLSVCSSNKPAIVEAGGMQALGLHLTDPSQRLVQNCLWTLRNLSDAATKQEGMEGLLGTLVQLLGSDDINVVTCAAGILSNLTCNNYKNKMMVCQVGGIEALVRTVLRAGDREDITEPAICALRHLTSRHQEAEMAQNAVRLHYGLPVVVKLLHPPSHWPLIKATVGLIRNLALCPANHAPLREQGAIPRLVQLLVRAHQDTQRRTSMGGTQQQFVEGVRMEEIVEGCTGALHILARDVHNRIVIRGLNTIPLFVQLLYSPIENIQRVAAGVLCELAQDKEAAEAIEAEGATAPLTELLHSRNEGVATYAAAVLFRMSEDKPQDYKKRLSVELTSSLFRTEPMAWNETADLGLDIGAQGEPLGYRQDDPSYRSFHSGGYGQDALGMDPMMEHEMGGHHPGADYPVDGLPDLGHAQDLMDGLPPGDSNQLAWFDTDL

The target in experiment [2] is β-catenin (human (endogenous in TPC1)) (UniProt P35222). The experiment can be described thus: co-IP; WT, mutated (p.H150Y, p.L187P) or truncated (p.E336fs) hGBP1 with β-catenin, TPC1 cells; which partner was precipitated is not told.

No constants are given. Whether binding was seen depends on the method and setting. In cells and extracts the contact can be indirect. Some binding calls cover weakened binding; strength is not graded here. For some of these results: Sequences can lack the tags named with a protein.

B1: zebrafish β-catenin (protein, UniProt F1QGH7 1-780)
chain: MATQSDLMELEMAMDPDRKAAVSHWQQQSYLDSGIHSGATTTAPSLSGKGNPEDDDVDNQVLYEWEQGFNQSFNQEQVADIDGQYAMTRAQRVRAAMFPETLDEGMQIPSTQFDSAHPTNVQRLAEPSQMLKHAVVNLINYQDDAELATRAIPELTKLLNDEDQVVVNKAAVMVHQLSKKEASRHAIMRSPQMVSAIVRTMQNTNDVETARCTSGTLHNLSHHREGLLAIFKSGGIPALVKMLGSPVDSVLFYAITTLHNLLLHQEGAKMAVRLAGGLQKMVALLNKTNVKFLAITTDCLQILAYGNQESKLIILASGGPQALVNIMRTYTYEKLLWTTSRVLKVLSVCSSNKPAIVEAGGMQALGLHLTDPSQRLVQNCLWTLRNLSDAATKQEGMEGLLGTLVQLLGSDDINVVTCAAGILSNLTCNNYKNKMMVCQVGGIEALVRTVLRAGDREDITEPAICALRHLTSRHQDAEMAQNAVRLHYGLPVVVKLLHPPSHWPLIKATVGLIRNLALCPANHAPLREQGAIPRLVQLLVRAHQDTQRRTSMGGTQQQFVEGVRMEEIVEGCTGALHILARDIHNRIVIRGLNTIPLFVQLLYSPIENIQRVAAGVLCELAQDKEAAEAIEAEGATAPLTELLHSRNEGVATYAAAVLFRMSEDKPQDYKKRLSVELTSSLFRTEPMTWNETGDLGLDIGAQGEPLGYRQDDPSYRSFHSGGYGQDAMGMDPMMEHEMAGHHPGPDYPVDGLPDLGHTQDLIDGLPPGDSNQLAWFDTDL
Regarding B1, the binding result in experiment [1] is given as “binds”.

B2: wild-type human GBP1 with Flag fused in the N-terminal (protein, UniProt P32455 1-592)
chain: MASEIHMTGPMCLIENTNGRLMANPEALKILSAITQPMVVVAIVGLYRTGKSYLMNKLAGKKKGFSLGSTVQSHTKGIWMWCVPHPKKPGHILVLLDTEGLGDVEKGDNQNDSWIFALAVLLSSTFVYNSIGTINQQAMDQLYYVTELTHRIRSKSSPDENENEVEDSADFVSFFPDFVWTLRDFSLDLEADGQPLTPDEYLTYSLKLKKGTSQKDETFNLPRLCIRKFFPKKKCFVFDRPVHRRKLAQLEKLQDEELDPEFVQQVADFCSYIFSNSKTKTLSGGIQVNGPRLESLVLTYVNAISSGDLPCMENAVLALAQIENSAAVQKAIAHYEQQMGQKVQLPTETLQELLDLHRDSEREAIEVFIRSSFKDVDHLFQKELAAQLEKKRDDFCKQNQEASSDRCSALLQVIFSPLEEEVKAGIYSKPGGYRLFVQKLQDLKKKYYEEPRKGIQAEEILQTYLKSKESMTDAILQTDQTLTEKEKEIEVERVKAESAQASAKMLQEMQRKNEQMMEQKERSYQEHLKQLTEKMENDRVQLLKEQERTLALKLQEQEQLLKEGFQKESRIMKNEIQDLQTKMRRRKACTIS
For the molecule B2, the binding result in experiment [2] is listed as “binds”.

B3: human GBP1 p.L187P with Flag fused in the N-terminal (protein, UniProt P32455 1-592)
chain: MASEIHMTGPMCLIENTNGRLMANPEALKILSAITQPMVVVAIVGLYRTGKSYLMNKLAGKKKGFSLGSTVQSHTKGIWMWCVPHPKKPGHILVLLDTEGLGDVEKGDNQNDSWIFALAVLLSSTFVYNSIGTINQQAMDQLYYVTELTHRIRSKSSPDENENEVEDSADFVSFFPDFVWTLRDFSPDLEADGQPLTPDEYLTYSLKLKKGTSQKDETFNLPRLCIRKFFPKKKCFVFDRPVHRRKLAQLEKLQDEELDPEFVQQVADFCSYIFSNSKTKTLSGGIQVNGPRLESLVLTYVNAISSGDLPCMENAVLALAQIENSAAVQKAIAHYEQQMGQKVQLPTETLQELLDLHRDSEREAIEVFIRSSFKDVDHLFQKELAAQLEKKRDDFCKQNQEASSDRCSALLQVIFSPLEEEVKAGIYSKPGGYRLFVQKLQDLKKKYYEEPRKGIQAEEILQTYLKSKESMTDAILQTDQTLTEKEKEIEVERVKAESAQASAKMLQEMQRKNEQMMEQKERSYQEHLKQLTEKMENDRVQLLKEQERTLALKLQEQEQLLKEGFQKESRIMKNEIQDLQTKMRRRKACTIS
On to B3, for which, in experiment [2], the binding result is listed as “binds”.

B4: human GBP1 p.H150Y with Flag fused in the N-terminal (protein, UniProt P32455 1-592)
chain: MASEIHMTGPMCLIENTNGRLMANPEALKILSAITQPMVVVAIVGLYRTGKSYLMNKLAGKKKGFSLGSTVQSHTKGIWMWCVPHPKKPGHILVLLDTEGLGDVEKGDNQNDSWIFALAVLLSSTFVYNSIGTINQQAMDQLYYVTELTYRIRSKSSPDENENEVEDSADFVSFFPDFVWTLRDFSLDLEADGQPLTPDEYLTYSLKLKKGTSQKDETFNLPRLCIRKFFPKKKCFVFDRPVHRRKLAQLEKLQDEELDPEFVQQVADFCSYIFSNSKTKTLSGGIQVNGPRLESLVLTYVNAISSGDLPCMENAVLALAQIENSAAVQKAIAHYEQQMGQKVQLPTETLQELLDLHRDSEREAIEVFIRSSFKDVDHLFQKELAAQLEKKRDDFCKQNQEASSDRCSALLQVIFSPLEEEVKAGIYSKPGGYRLFVQKLQDLKKKYYEEPRKGIQAEEILQTYLKSKESMTDAILQTDQTLTEKEKEIEVERVKAESAQASAKMLQEMQRKNEQMMEQKERSYQEHLKQLTEKMENDRVQLLKEQERTLALKLQEQEQLLKEGFQKESRIMKNEIQDLQTKMRRRKACTIS
On to B4, for which the binding result in experiment [2] is “binds”.

For the origin of these results see PMC8486662.
